Results are given in words; binding and its absence hold for the method and conditions named. Binding seen in cells or lysates may run through a third protein. Here binding means that the protein was enriched with, or labelled near, the bait; the list need not be complete.

Chains of the proteins cited; added tags and fusions are not shown.
UniProt P52926: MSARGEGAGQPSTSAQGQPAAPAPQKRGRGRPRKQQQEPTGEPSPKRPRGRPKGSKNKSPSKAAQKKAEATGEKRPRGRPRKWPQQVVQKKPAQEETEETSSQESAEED
UniProt P40763: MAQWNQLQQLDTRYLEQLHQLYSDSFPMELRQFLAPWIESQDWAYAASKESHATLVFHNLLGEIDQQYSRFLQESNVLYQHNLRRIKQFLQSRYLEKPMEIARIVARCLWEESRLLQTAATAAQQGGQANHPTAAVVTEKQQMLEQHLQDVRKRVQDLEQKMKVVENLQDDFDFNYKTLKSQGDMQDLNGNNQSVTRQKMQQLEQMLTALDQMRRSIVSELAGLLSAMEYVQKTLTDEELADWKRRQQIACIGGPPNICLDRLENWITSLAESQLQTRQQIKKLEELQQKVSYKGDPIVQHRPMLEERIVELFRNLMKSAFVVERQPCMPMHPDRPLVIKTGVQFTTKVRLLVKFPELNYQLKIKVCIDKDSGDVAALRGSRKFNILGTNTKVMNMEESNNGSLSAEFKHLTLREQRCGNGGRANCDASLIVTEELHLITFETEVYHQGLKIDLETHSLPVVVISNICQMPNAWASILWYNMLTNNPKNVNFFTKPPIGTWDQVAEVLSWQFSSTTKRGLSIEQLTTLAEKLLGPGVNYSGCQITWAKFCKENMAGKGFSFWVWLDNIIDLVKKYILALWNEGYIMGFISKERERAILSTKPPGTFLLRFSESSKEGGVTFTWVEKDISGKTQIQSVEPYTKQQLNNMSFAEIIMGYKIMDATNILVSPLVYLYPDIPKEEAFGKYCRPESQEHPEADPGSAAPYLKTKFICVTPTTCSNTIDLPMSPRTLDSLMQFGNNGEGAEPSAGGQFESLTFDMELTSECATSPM
UniProt Q15672: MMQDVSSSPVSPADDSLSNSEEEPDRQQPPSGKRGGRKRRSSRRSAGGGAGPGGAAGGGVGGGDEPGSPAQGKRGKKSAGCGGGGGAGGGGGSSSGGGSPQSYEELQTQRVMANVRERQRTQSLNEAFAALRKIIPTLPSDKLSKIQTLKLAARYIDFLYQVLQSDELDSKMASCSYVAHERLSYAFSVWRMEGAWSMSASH

For this test, the target named is high-mobility group AT-hook 2 (HMGA2) (human (endogenous in A549)) (UniProt P52926). Nature of the test: affinity purification with mass spectrometry; co-IP in A549 cells using anti-HMGA2 antibody, followed by mass spectrometry.

For the substance STAT3 (from UniProt P40763 1-770), the binding entry is “binds”.

With Twist1 (from UniProt Q15672 1-202), the binding entry is listed as “binds”.

Source of the values: PMC7385491.
